Measurements reported in the supplement of paper PMC3334620.
Whole data set: some 33,000 sequences, median “E-score (-0.5 to 0.5)” near -0.016, cut for the highest 2% near 0.3. Some of the results follow.

Each sequence was assayed against T1, Yer184c (UniProt P39961) (assay: PBM E-score (8-mer binding enrichment) (E-score (-0.5 to 0.5)); higher = stronger / more preferred TF binding). Conditions: protein concentration: 100 nM; construct: GST-full length.
T1 sequence: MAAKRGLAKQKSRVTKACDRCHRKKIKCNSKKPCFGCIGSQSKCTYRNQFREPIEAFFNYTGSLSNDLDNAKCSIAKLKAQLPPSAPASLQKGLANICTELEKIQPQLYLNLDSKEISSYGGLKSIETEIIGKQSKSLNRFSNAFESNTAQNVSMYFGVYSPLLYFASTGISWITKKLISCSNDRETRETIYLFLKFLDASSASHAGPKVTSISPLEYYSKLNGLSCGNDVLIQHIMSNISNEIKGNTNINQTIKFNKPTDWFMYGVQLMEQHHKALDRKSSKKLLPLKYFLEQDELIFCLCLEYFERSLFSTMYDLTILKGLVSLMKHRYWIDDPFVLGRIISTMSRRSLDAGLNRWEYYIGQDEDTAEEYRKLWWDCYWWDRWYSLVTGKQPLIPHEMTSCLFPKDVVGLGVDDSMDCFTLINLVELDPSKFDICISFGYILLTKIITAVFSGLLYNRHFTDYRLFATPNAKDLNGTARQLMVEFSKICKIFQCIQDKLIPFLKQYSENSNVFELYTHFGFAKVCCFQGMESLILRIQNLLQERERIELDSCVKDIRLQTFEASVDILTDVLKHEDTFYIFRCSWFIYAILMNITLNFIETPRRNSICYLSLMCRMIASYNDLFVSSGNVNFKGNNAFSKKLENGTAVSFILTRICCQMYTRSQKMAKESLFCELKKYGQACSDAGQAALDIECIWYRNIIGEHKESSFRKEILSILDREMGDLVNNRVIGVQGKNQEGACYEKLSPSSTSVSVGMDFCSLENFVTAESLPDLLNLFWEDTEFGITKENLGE
Outline: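 Universal all-10-mer Agilent arrays, double-stranded by primer extension on fresh or once-stripped slides, were probed with about 100-200 nM GST-tagged yeast transcription factors made by PURExpress. Fluorescent anti-GST detected bound protein, and masliner normalised the scans. E-scores from the Universal PBM Analysis Suite were given to each ungapped eight-base word pooled with its reverse complement.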

Sequence | PBM E-score
CGAGTGAG | 0.125
GTCTTCGA | 0.0694
TCTCCAGA | -0.109
AAGAGTGA | -0.0962
CTACCAAA | 0.0165
AGAACACT | -0.032
GCGTCATA | 0.152
TGCTCCCA | 1e-05
GGGTGCCA | -0.125
CTAGGTCC | -0.0874
AGCCACCG | -0.0082
GAACACCC | -0.0175
GCGACAGA | -0.055
TTGTACAA | 0.149
AGGTAAAA | 0.0579
CTACAAAA | 0.171
GCAGCTGA | -0.0334
AATCTTTG | 0.108
AGTAAAGA | -0.0721
AATTTATC | 0.29
ACCTGGAC | -0.276
CTAGATAC | 0.118
AATCGGAG | 0.216
CAAGACAA | 0.182
AAAACTAT | 0.158

Sequence | PBM E-score
GAAAGGCC | -0.0612
GGGAACCA | -0.222
CTGGTACA | -0.0797
GGGGACTA | -0.3
CAAAACAG | 0.0555
AACTGTTG | -0.205
GATTCCCC | -0.111
GAAGTCGA | 0.0273
ATGGTTTG | 0.0299
ATAGCAGA | -0.0688
AAGCCGCA | 0.161
AGCCAAGC | -0.117
GCTCTCAA | 0.0851
CTCGTAAG | 0.135
GCATGTAC | -0.15
GGTGAGCA | -0.236
CATAGCAA | -0.0697
GCGGTGGA | 0.00643
AGGCGGAT | -0.0122
CCTTACTC | 0.0738
ATTGCGAC | 0.133
CACTTCTC | -0.119
CGGCTGAG | 0.0887
CTCCCGAG | -0.0219
CGAGTGCA | 0.166

2 records picked at random from those above, as already listed:
Sequence | PBM E-score
TCTCCAGA | -0.109
GCATGTAC | -0.15

(next part)

Sequence | PBM E-score
AGCTTATC | 0.0293
CCTAGGCA | -0.163
ACGTTAGC | 0.165
ATGTACTG | -0.021
CAGTAAAC | 0.0257
CTCAGGTA | -0.0384
ACGGCTCC | 0.189
ATTAATAC | 0.21
ACAACGAC | 0.104
GAGGCCTC | 0.0359
ATATTAAA | 0.368
CTTTACGA | -0.0405
CGGTACCA | 0.0778
AAAAAGGA | 0.119
TGTTAAAA | 0.173
CCTGAAGC | -0.222
ACGCAGGC | -0.0161
AAGTCCTG | -0.108
TAAGGTGA | -0.0772
CGAAGTAG | 0.176
ACCCACAG | -0.182
CGCGAATA | 0.0753
CAGACGTC | -0.186
CAGAAATC | 0.0538
CCGTGAAC | 0.152

Sequence | PBM E-score
CGATTTTA | 0.0349
CAGCGGGA | -0.115
AGAAAATC | 0.142
ACGATTTC | 0.171
AGATCGAT | -0.107
ACACACCG | 0.0279
AGTCTCTG | -0.11
ATCAAGTC | -0.0287
AAGAAAAC | 0.141
ATATCGAA | 0.14
ATACGGAC | 0.117
ACGATCTC | 0.0383
AAGGTTCT | -0.0394
CTATGTCC | -0.0749
CCTGGTTC | -0.0462
CGTAATGC | -0.0392
AATACCTA | 0.0562
TCAAGAAA | 0.28
AGAAGCAT | 0.0357
AAAGCGAT | 0.06
CGCTACAG | -0.0307
ATGCTACC | 0.0246
ATTCGATA | -0.00222
GGAAAAAA | 0.304
CAAGACGC | -0.00329

Sequence | PBM E-score
CACCAAGG | -0.204
GAGAAAAA | 0.188
TCCGGTAA | 0.387
GCCGCAAA | 0.239
TATTAGAA | 0.173
ACCCTAAA | 0.0527
AGGAAAAA | 0.168
CCCATGGG | -0.0805
GTATACTA | -0.0915
GCAGGTAC | -0.22
ACCATGGG | -0.206
ATTCTTGC | 0.225
GCTCGGAC | 0.187
CGTCTGCC | -0.0744
GCCGGAAC | 0.403
ACATTTCA | 0.146
AATCCCGA | 0.246
ATAATGCA | -0.0828
ATAGTTCA | 0.189
ACACCCGG | 0.135
AGTTGCAT | 0.105
ACAGCAAA | 0.0742
CGTGGAAA | 0.134
AATATGGG | -0.215
AGAGCATA | -0.077

Sequence | PBM E-score
CGCAGCAC | -0.00665
CTTGCTCA | -0.207
ACATACAT | 0.14
CGTTTAGA | -0.0269
GAGCGCCA | -0.0646
GTAGCAAC | -0.00751
CACGTTGG | -0.214
ACTCCATA | -0.308
ATAGCCGC | 0.0602
CGTCGACC | 0.0515
ACGGCGCG | 0.232
CACCGCAG | -0.166
AACAGGCA | -0.15
GTCACCCA | -0.184
CTTACACA | -0.0671
GTCCACAC | 0.0836
ACTGAGTA | -0.212
GATATATC | 0.266
CTGGAATA | 0.017
AAGACCAG | -0.113
AACTACGC | 0.0355
AAGACTAA | 0.0733
ATGTCACA | 0.157
TGATGGAA | 0.0745
AATGTGAG | -0.0534

Sequence | PBM E-score
GTTTAAAA | 0.162
AGAATGCG | 0.141
AGCAGCCG | 0.197
TCAGCCAA | -0.089
ATCTCGCA | 0.128
ATGTTGGC | -0.0133
AAGTGACC | -0.0785
CGAAGGCA | -0.179
CCTTTGAC | -0.0704
CGCGTCAC | -0.11
CTCTTGGC | -0.189
ATTTCAGG | 0.121
GCCATTGA | 0.0105
GAAGCTGC | -0.197
CCAACTTA | -0.0404
CTATCGTC | -0.213
CTGGCTTC | -0.182
ACGAAAAC | 0.274
AAGCGGCT | 0.197
AAAGTCGT | -0.162
ATCCCAAC | -0.193
CAAAACTG | 0.0604

Given comma-delimited: entries from further up
Sequence,PBM E-score
CGTCGACC,0.0515
ACGGCGCG,0.232
CACCGCAG,-0.166
AACAGGCA,-0.15
GTCACCCA,-0.184
CTTACACA,-0.0671
GTCCACAC,0.0836
ACTGAGTA,-0.212
GATATATC,0.266
CTGGAATA,0.017
AAGACCAG,-0.113
AACTACGC,0.0355
AAGACTAA,0.0733
ATGTCACA,0.157
TGATGGAA,0.0745
AATGTGAG,-0.0534
GTTTAAAA,0.162
AGAATGCG,0.141
AGCAGCCG,0.197
TCAGCCAA,-0.089
ATCTCGCA,0.128
ATGTTGGC,-0.0133
AAGTGACC,-0.0785
CGAAGGCA,-0.179
CCTTTGAC,-0.0704
CGCGTCAC,-0.11
CTCTTGGC,-0.189
ATTTCAGG,0.121
GCCATTGA,0.0105
GAAGCTGC,-0.197
CCAACTTA,-0.0404
CTATCGTC,-0.213
CTGGCTTC,-0.182
ACGAAAAC,0.274
AAGCGGCT,0.197
AAAGTCGT,-0.162
ATCCCAAC,-0.193
